From patent publication US20210138090A1 (FLUOGUIDE A/S, priority 2014, published 2021) come the findings set out here.

Square brackets hold non-standard residues; d marks the D form. Peptide text beside a SMILES is read from it. * marks the point of attachment. IRDye800CW = CC1(C)C(/C=C/C2=C(Oc3ccc(S(=O)(=O)O)cc3)C(=C/C=C3/N(CCCCS(=O)(=O)O)c4ccc(S(=O)(=O)O)cc4C3(C)C)/CCC2)=[N+](CCCCCC(=O)*)c2ccc(S(=O)(=O)[O-])cc21; Cha = N[C@@H](CC1CCCCC1)C(=O)O; AEEA = NCCOCCOCC(=O)O

Series [1] deals with orthotopic GBM (U-87 MG-luc2 cells). Nature of the series: dynamic NIR imaging of orthotopic GBM on cross sectioned brain (Fluobeam). It is filed as in vivo, mice. The conditions noted are these: 6 nmol. Here is the method:
All experimental procedures in animals were carried out in accordance with the approval by The Animal Experiments Inspectorate, Denmark. 7-10-week-old female nude mice (strain: Rj:NMRI-Foxn1nu/nu, JANVIER LABS, France) were orthotopically xenografted with U-87 MG-luc2 cells.
The orthotopic GBM tumor model was established by inoculation of 500.000 cells in 10 μL ice cold PBS in the right hemisphere (1.5 mm lateral and 0.5 mm posterior to the bregma at 2 mm depth) using a stereotaxic frame (KOPF INSTRUMENTS, Tujunga, Calif., USA) with the automated microinjection pump UMP3 (WPI, Sarasota, Fla., USA). The cells were injected over 5 min with the syringe kept in place for further 3 min before retraction. Tumor growth was subsequently monitored on MRI with the BioSpec 7T (Bruker, Billerica, Mass., USA) with axial and coronal T2-wighted sequences. When the tumor size reached 2-17 mm^3, the animals were included in the fluorescence imaging protocol.
All image acquisition was performed with the Fluobeam system with (Fluosoft version: 2.2.1) (Fluoptics, Grenoble, France). To characterize the in vivo biodistribution and tumor imaging properties, IRDye800-AE344 was administered through tail vein injection into all the GBM bearing mice (n=35) at four different doses: 1 nmol, 3 nmol, 6 nmol, and 12 nmol. Two mice were sacrificed for each time point and the brain was removed and cross sectioned through the tumor for imaging. […] Accordingly, image acquisition was performed at following time points after injection: • 1 nmol: 0.5 h, 1 h, and 2 h • 3 nmol: 1 h, 2 h, 3 h, and 5 h • 6 nmol: 1 h, 3 h, 6 h, and 12 h • 12 nmol: 1 h, 3 h, 5 h, 10 h, 15 h, and 24 h
Images were analyzed and processed in ImageJ 1.52a, NIH, USA. Signal measurements were performed on the raw images generated by the Fluoptics system. Tumor signal was measured as a mean fluorescence intensity of the whole tumor and background signal was measured as the mean of a representative area with no tumor on the contralateral hemisphere. […]

A short description of series [2]: general procedure: Fmoc solid-phase peptide synthesis; Fmoc Ser(t-Bu) TentaGel S PHB 0.25 mmol/g; HBTU/HOAt/DIEA; HATU/HOAt/DIEA for the dye. The conditions noted are these: whole synthesis.
The mark [3] stands for this setting: UHPLC-MS, two analytical methods (C4 and C18 columns), scale of the general procedure 0.1 mmol.

For the compound `CC(C)C[C@H](NC(=O)[C@H](Cc1ccc(O)cc1)NC(=O)[C@@H](CCCNC(=N)N)NC(=O)[C@@H](CO)NC(=O)[C@H](Cc1ccccc1)NC(=O)[C@H](CC1CCCCC1)NC(=O)[C@H](CC(=O)O)NC(=O)COCCOCCNC(=O)COCCOCCNC(=O)[C@H](CCC(=O)O)NC(=O)[C@H](CCC(=O)O)NC(=O)CCCCC[N+]1=C(/C=C/C2=C(Oc3ccc(S(=O)(=O)O)cc3)C(=C/C=C3/N(CCCCS(=O)(=O)O)c4ccc(S(=O)(=O)O)cc4C3(C)C)/CCC2)C(C)(C)c2cc(S(=O)(=O)[O-])ccc21)C(=O)N[C@@H](Cc1c[nH]c2ccccc12)C(=O)N[C@@H](CO)C(=O)O` [IRDye800CW-AE344, IRDye800-Glu-Glu-O2Oc-O2Oc-Asp-Cha-Phe-D-ser-D-arg-Tyr-Leu-Trp-Ser-OH] (IRDye800CW-EE[AEEA][AEEA]D[Cha]F[dS][dR]YLWS-OH), the “background MFI” value in series [1] (1 h) was determined as 24 a.u; in series [1] (3 h), 11 a.u. The “decrease in background MFI” value in series [1] (from 1 h to 3 h) stood at 54%.
Regarding “IRDye800-Glu-Glu-O2Oc-O2Oc-Asp-Cha-Phe-D-ser-D-arg-Tyr-Leu-Trp-Ser-OH”, in series [2] (setting [3]), the “crude LC-MS purity” value was “above 80%” and the “final LC-MS purity” value came to 98%. For the same compound, the isolated mass in series [2] (scale 0.1 mmol) is given as 2 mg.
